The target of this test is TurboID-MYO10 (human) (UniProt Q9HD67). The test is described as follows: proximity labelling.

By UniProt entry, the sequences of proteins in these tests, tags left out.
UniProt Q9HD67: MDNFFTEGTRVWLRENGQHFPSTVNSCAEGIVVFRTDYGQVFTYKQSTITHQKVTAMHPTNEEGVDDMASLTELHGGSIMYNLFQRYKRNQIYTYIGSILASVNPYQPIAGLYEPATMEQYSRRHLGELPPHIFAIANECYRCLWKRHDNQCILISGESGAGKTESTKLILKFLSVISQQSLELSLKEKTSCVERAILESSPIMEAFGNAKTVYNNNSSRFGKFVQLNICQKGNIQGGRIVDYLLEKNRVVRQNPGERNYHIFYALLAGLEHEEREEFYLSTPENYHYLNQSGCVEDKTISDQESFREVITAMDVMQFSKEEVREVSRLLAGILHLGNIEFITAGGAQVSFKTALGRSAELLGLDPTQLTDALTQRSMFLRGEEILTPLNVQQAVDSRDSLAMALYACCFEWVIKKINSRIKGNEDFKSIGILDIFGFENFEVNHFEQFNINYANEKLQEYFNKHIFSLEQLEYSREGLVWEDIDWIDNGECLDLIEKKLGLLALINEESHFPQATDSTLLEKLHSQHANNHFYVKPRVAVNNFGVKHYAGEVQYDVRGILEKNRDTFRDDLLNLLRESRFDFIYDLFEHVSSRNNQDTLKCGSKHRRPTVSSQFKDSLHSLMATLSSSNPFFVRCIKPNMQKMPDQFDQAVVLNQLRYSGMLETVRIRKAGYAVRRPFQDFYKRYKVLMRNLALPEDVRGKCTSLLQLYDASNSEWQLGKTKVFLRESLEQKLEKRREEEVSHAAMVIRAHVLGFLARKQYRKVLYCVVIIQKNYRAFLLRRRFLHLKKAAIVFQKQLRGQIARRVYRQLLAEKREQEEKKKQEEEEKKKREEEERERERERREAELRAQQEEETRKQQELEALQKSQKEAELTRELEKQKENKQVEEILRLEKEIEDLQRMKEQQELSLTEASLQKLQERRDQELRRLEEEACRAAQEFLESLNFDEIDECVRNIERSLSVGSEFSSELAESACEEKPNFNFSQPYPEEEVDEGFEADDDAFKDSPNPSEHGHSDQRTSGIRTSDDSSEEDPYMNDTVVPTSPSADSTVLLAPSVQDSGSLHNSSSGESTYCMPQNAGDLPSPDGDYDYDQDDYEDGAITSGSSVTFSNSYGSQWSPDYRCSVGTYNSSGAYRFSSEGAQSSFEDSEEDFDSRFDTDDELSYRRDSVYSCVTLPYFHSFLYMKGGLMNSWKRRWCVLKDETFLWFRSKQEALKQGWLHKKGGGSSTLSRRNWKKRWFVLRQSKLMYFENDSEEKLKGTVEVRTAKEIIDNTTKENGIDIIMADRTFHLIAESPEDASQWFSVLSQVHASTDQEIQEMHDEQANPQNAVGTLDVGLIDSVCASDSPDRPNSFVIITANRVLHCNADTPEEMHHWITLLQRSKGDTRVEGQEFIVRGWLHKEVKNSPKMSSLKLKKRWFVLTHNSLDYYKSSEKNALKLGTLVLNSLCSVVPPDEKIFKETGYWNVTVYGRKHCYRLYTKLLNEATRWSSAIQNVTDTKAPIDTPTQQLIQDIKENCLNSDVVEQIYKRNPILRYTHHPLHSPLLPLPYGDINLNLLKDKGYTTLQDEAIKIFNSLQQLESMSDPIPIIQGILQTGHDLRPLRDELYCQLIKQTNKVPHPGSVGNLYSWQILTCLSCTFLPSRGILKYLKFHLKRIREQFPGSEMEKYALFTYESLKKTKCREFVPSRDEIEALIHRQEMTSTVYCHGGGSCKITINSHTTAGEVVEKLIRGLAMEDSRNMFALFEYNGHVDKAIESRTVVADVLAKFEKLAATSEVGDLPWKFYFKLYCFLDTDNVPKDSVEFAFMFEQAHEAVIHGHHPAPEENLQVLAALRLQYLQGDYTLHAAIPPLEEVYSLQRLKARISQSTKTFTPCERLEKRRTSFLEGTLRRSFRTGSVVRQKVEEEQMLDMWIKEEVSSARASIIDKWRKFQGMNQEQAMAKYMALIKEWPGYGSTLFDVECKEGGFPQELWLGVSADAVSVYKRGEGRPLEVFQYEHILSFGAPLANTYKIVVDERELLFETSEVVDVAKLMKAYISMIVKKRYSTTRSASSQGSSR
UniProt P48643: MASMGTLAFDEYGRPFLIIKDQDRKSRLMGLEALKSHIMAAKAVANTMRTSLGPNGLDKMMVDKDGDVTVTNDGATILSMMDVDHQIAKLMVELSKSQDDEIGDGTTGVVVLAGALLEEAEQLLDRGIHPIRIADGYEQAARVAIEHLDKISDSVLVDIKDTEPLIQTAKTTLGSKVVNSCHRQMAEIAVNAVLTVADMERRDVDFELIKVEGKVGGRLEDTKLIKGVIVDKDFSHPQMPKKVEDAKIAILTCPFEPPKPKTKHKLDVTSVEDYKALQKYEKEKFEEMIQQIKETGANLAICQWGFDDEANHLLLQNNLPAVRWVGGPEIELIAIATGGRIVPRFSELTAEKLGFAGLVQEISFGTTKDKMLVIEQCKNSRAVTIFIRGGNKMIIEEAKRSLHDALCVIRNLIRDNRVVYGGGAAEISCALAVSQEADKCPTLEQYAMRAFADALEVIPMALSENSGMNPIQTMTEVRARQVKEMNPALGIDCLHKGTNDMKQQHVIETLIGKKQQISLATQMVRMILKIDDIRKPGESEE
UniProt Q99832: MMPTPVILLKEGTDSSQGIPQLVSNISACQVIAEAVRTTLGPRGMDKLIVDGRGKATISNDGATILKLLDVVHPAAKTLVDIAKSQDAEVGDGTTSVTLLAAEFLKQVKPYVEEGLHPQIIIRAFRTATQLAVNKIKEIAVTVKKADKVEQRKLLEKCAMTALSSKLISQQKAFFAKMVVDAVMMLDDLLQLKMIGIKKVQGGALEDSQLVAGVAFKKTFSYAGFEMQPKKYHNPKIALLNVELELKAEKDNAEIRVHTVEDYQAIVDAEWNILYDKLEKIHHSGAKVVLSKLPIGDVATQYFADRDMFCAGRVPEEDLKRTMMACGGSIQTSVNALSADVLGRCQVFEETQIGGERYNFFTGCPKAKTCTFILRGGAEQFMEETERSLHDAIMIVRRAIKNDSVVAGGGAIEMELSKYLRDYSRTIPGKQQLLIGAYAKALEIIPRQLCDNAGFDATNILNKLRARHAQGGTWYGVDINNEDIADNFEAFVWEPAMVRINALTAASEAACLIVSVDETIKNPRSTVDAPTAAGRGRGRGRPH

No constants are given. Whether binding was seen depends on the method and setting. In cells and extracts the contact can be indirect. These calls come from enrichment with a bait or labelling near it, and not all partners need be listed. A no says only that the protein was not detected with the bait.

“CCT5 (TRiC subunit) (from UniProt P48643 1-541)”: the binding result is recorded as “no binding”.

Consider “CCT7 (TRiC subunit) (from UniProt Q99832 1-543)”, for which the binding entry is recorded as “no binding”.

B1: CCT2 (TRiC subunit) (protein, UniProt P78371 1-535)
chain: MASLSLAPVNIFKAGADEERAETARLTSFIGAIAIGDLVKSTLGPKGMDKILLSSGRDASLMVTNDGATILKNIGVDNPAAKVLVDMSRVQDDEVGDGTTSVTVLAAELLREAESLIAKKIHPQTIIAGWREATKAAREALLSSAVDHGSDEVKFRQDLMNIAGTTLSSKLLTHHKDHFTKLAVEAVLRLKGSGNLEAIHIIKKLGGSLADSYLDEGFLLDKKIGVNQPKRIENAKILIANTGMDTDKIKIFGSRVRVDSTAKVAEIEHAEKEKMKEKVERILKHGINCFINRQLIYNYPEQLFGAAGVMAIEHADFAGVERLALVTGGEIASTFDHPELVKLGSCKLIEEVMIGEDKLIHFSGVALGEACTIVLRGATQQILDEAERSLHDALCVLAQTVKDSRTVYGGGCSEMLMAHAVTQLANRTPGKEAVAMESYAKALRMLPTIIADNAGYDSADLVAQLRAAHSEGNTTAGLDMREGTIGDMAILGITESFQVKRQVLLSAAEAAEVILRVDNIIKAAPRKRVPDHHPC
Consider B1, for which the binding result is “no binding”.
